Results are given in words; binding and its absence hold for the method and conditions named. For part of these data: In cells and extracts the contact can be indirect. For part of these data: Binding can be weak; no strength is given. Tags and fused reporters may be left off the sequences shown.
Experiments:
[1] = target: NDR2 (LCI fusion) (Arabidopsis thaliana); test: split reporter; firefly luciferase complementation imaging (LCI) in N. benthamiana leaves, 2-4 days after infiltration; 1 mM D-luciferin, CCD imaging
[2] = target: NDR4 (LCI fusion) (Arabidopsis thaliana); test: as above
[3] = target: NDR5 (LCI fusion) (Arabidopsis thaliana); test: as above
[4] = target: NDR2 (yeast two-hybrid fusion) (Arabidopsis thaliana); test: two-hybrid; Gal4 system (Clontech), yeast strain AH109; growth on SD/-Trp-Leu-His, 3-7 days at 28 °C
[5] = target: NDR4 (yeast two-hybrid fusion) (Arabidopsis thaliana); test: as above
[6] = target: NDR5 (yeast two-hybrid fusion) (Arabidopsis thaliana); test: as above

B1: CLuc-MAP3Kε1 (protein, UniProt Q9LJD8 1-1368)
chain: MARQMTSSQFHKSKTLDNKYMLGDEIGKGAYGRVYKGLDLENGDFVAIKQVSLENIVQEDLNTIMQEIDLLKNLNHKNIVKYLGSSKTKTHLHIILEYVENGSLANIIKPNKFGPFPESLVAVYIAQVLEGLVYLHEQGVIHRDIKGANILTTKEGLVKLADFGVATKLNEADVNTHSVVGTPYWMAPEVIEMSGVCAASDIWSVGCTVIELLTCVPPYYDLQPMPALFRIVQDDNPPIPDSLSPDITDFLRQCFKKDSRQRPDAKTLLSHPWIRNSRRALQSSLRHSGTIKYMKEATASSEKDDEGSQDAAESLSGENVGISKTDSKSKLPLVGVSSFRSEKDQSTPSDLGEEGTDNSEDDIMSDQVPTLSIHEKSSDAKGTPQDVSDFHGKSERGETPENLVTETSEARKNTSAIKHVGKELSIPVDQTSHSFGRKGEERGIRKAVKTPSSVSGNELARFSDPPGDASLHDLFHPLDKVSEGKPNEASTSMPTSNVNQGDSPVADGGKNDLATKLRATIAQKQMEGETGHSNDGGDLFRLMMGVLKDDVIDIDGLVFDEKVPAENLFPLQAVEFSRLVSSLRPDESEDAIVSSCQKLVAMFRQRPEQKVVFVTQHGFLPLMDLLDIPKSRVICAVLQLINEIIKDNTDFQENACLVGLIPVVMSFAGPERDRSREIRKEAAYFLQQLCQSSPLTLQMFIACRGIPVLVGFLEADYAKYREMVHLAIDGMWQVFKLKRSTPRNDFCRIAAKNGILLRLINTLYSLNEATRLASISGGLDGQAPRVRSGQLDPNNPIFGQNETSSLSMIDQPDVLKTRHGGGEEPSHASTSNSQRSDVHQPDALHPDGDKPRVSSVAPDASTSGTEDVRQQHRISLSANRTSTDKLQKLAEGASNGFPVTQTEQVRPLLSLLDKEPPSRHYSGQLDYVKHITGIERHESRLPLLHGSNEKKNNGDLDFLMAEFAEVSGRGKENGSLDTTTRYPSKTMTKKVLAIEGVASTSGIASQTASGVLSGSGVLNARPGSATSSGLLAHMVSTLSADVAREYLEKVADLLLEFARADTTVKSYMCSQSLLSRLFQMFNRVEPPILLKILECTNHLSTDPNCLENLQRADAIKHLIPNLELKDGHLVYQIHHEVLSALFNLCKINKRRQEQAAENGIIPHLMLFIMSDSPLKQYALPLLCDMAHASRNSREQLRAHGGLDVYLSLLDDEYWSVIALDSIAVCLAQDNDNRKVEQALLKQDAIQKLVDFFQSCPERHFVHILEPFLKIITKSYRINKTLAVNGLTPLLISRLDHQDAIARLNLLKLIKAVYEHHPRPKQLIVENDLPQKLQNLIEERRDGQRSGGQVLVKQMATSLLKALHINTIL
binding [1]: binds
binding [2]: binds
binding [3]: no binding

B2: CLuc-MAP3Kε2 (protein, UniProt Q9SFB6 1-1367)
chain: MARQMTSSQFHKSKTLDNKYMLGDEIGKGAYGRVYIGLDLENGDFVAIKQVSLENIGQEDLNTIMQEIDLLKNLNHKNIVKYLGSLKTKTHLHIILEYVENGSLANIIKPNKFGPFPESLVTVYIAQVLEGLVYLHEQGVIHRDIKGANILTTKEGLVKLADFGVATKLNEADFNTHSVVGTPYWMAPEVIELSGVCAASDIWSVGCTIIELLTCVPPYYDLQPMPALYRIVQDDTPPIPDSLSPDITDFLRLCFKKDSRQRPDAKTLLSHPWIRNSRRALRSSLRHSGTIRYMKETDSSSEKDAEGSQEVVESVSAEKVEVTKTNSKSKLPVIGGASFRSEKDQSSPSDLGEEGTDSEDDINSDQGPTLSMHDKSSRQSGTCSISSDAKGTSQDVLENHEKYDRDEIPGNLETEASEGRRNTLATKLVGKEYSIQSSHSFSQKGEDGLRKAVKTPSSFGGNELTRFSDPPGDASLHDLFHPLDKVPEGKTNEASTSTPTANVNQGDSPVADGGKNDLATKLRARIAQKQMEGETGHSQDGGDLFRLMMGVLKDDVLNIDDLVFDEKVPPENLFPLQAVEFSRLVSSLRPDESEDAIVTSSLKLVAMFRQRPGQKAVFVTQNGFLPLMDLLDIPKSRVICAVLQLINEIVKDNTDFLENACLVGLIPLVMSFAGFERDRSREIRKEAAYFLQQLCQSSPLTLQMFISCRGIPVLVGFLEADYAKHREMVHLAIDGMWQVFKLKKSTSRNDFCRIAAKNGILLRLVNTLYSLSEATRLASISGDALILDGQTPRARSGQLDPNNPIFSQRETSPSVIDHPDGLKTRNGGGEEPSHALTSNSQSSDVHQPDALHPDGDRPRLSSVVADATEDVIQQHRISLSANRTSTDKLQKLAEGASNGFPVTQPDQVRPLLSLLEKEPPSRKISGQLDYVKHIAGIERHESRLPLLYASDEKKTNGDLEFIMAEFAEVSGRGKENGNLDTAPRYSSKTMTKKVMAIERVASTCGIASQTASGVLSGSGVLNARPGSTTSSGLLAHALSADVSMDYLEKVADLLLEFARAETTVKSYMCSQSLLSRLFQMFNRVEPPILLKILECTNHLSTDPNCLENLQRADAIKQLIPNLELKEGPLVYQIHHEVLSALFNLCKINKRRQEQAAENGIIPHLMLFVMSDSPLKQYALPLLCDMAHASRNSREQLRAHGGLDVYLSLLDDEYWSVIALDSIAVCLAQDVDQKVEQAFLKKDAIQKLVNFFQNCPERHFVHILEPFLKIITKSSSINKTLALNGLTPLLIARLDHQDAIARLNLLKLIKAVYEKHPKPKQLIVENDLPQKLQNLIEERRDGQRSGGQVLVKQMATSLLKALHINTIL
binding [1]: binds
binding [2]: binds
binding [3]: no binding

B3: MAP3Kε1 (pGADT7, AD fusion) (protein, UniProt Q9LJD8 1-1368)
chain: B1 chain
binding [4]: no binding
binding [5]: no binding
binding [6]: no binding

B4: MAP3Kε2 (pGADT7, AD fusion) (protein, UniProt Q9SFB6 1-1367)
chain: B2 chain
binding [4]: no binding
binding [5]: no binding
binding [6]: no binding
